Results: patent US10894014B2, “Orodispersible tablet containing Estetrol” (ESTETRA SPRL, priority 2015, dated 2021)
At least one read-out could not be matched to a standard name with certainty.

Assay: Randomized, open-label, two-period, cross-over pharmacokinetic study, sublingual vs oral estetrol tablet
Type: in vivo, healthy female volunteers
Conditions: fasting
Description: A randomized, open-label, two-period, cross-over, pharmacokinetic study is conducted to compare sublingual bioavailability of 10 mg estetrol administered in one 80 mg tablet with oral availability of estetrol contained in a 83 mg tablet containing 10 mg estetrol. These tablets are administered sublingually and orally to healthy female volunteers under fasting conditions.
Ten healthy female subjects are selected on the basis of the following criteria: age of 45-65 years (inclusive), nonsmokers or past smokers (at least 6 months before dosing), body-mass index (BMI)=18.5 to 30 kg/m^2 (inclusive at the time of the screening).
At the start of the first and the second period of the study, between 07:00 am and 07:28 am, 5 subjects receive a single dose of the sublingual formulation of estetrol by administering one estetrol tablet (tablet weight 80 mg; 10 mg estetrol) and 5 subjects receive a single oral dose of the oral estetrol formulation by administering one estetrol tablet (tablet weight 83 mg; 10 mg estetrol), ingested together with 200 ml water. […]
The estetrol concentration in the collected blood samples is determined by means of HPLC/MS/MS. The concentrations of glucuronided estetrol (D-ring) in the urine samples is also determined with the help of HPLC/MS/MS.

Which “onset of bioavailability compared with oral” value (10 mg estetrol sublingual vs oral tablet) does the source give for `C[C@]12CC[C@@H]3c4ccc(O)cc4CC[C@H]3[C@@H]1[C@@H](O)[C@@H](O)[C@@H]2O` [estetrol, 1,3,5 (10)-estratrien-3,15α,16α,17β-tetrol] here?
Its value is “earlier bioavailability compared to orally administered estetrol”.

And the “sublingual bioavailability compared with oral” value (10 mg estetrol, one 80 mg tablet sublingually vs 83 mg tablet orally, single dose)?
Its value is “comparable or even superior to orally administered estetrol”.
